Measured values as given in paper PMC3235137.
Results are given in words; binding and its absence hold for the method and conditions named. In cells and extracts the contact can be indirect. A yes stands for co-enrichment or nearness to the bait. Other partners may have been found.

Protein sequences, listed by entry. Tags and fused reporters are not part of them. Residues count along the entry.
UniProt Q8AYS8: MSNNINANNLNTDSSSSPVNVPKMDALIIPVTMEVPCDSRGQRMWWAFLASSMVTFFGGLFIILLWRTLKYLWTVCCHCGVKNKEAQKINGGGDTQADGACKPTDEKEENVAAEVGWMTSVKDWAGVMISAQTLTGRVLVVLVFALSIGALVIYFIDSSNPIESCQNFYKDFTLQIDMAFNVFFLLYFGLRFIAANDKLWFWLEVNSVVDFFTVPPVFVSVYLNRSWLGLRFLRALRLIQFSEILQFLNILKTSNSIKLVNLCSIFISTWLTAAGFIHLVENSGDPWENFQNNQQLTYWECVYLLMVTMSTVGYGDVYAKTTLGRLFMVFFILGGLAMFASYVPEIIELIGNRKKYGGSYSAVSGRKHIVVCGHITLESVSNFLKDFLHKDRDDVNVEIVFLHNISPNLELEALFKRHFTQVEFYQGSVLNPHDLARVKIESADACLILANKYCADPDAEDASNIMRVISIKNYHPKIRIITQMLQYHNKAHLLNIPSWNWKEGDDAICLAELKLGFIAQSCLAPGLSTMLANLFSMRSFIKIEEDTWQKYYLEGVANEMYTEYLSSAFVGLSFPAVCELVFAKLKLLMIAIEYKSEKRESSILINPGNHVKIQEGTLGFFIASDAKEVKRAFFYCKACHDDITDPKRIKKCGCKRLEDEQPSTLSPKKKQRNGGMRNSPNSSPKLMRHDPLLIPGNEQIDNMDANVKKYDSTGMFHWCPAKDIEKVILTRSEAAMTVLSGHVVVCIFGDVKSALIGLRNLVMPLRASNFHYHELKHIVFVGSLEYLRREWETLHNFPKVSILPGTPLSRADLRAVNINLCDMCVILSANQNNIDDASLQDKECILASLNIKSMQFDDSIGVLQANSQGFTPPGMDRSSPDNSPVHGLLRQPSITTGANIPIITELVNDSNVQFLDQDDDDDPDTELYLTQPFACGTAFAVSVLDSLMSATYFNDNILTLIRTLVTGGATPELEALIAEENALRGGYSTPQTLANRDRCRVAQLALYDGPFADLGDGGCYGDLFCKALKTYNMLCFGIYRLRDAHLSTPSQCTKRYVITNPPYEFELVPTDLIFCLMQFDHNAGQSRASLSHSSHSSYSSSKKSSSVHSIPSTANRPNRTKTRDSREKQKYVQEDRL
UniProt Q90593, residues 17-652: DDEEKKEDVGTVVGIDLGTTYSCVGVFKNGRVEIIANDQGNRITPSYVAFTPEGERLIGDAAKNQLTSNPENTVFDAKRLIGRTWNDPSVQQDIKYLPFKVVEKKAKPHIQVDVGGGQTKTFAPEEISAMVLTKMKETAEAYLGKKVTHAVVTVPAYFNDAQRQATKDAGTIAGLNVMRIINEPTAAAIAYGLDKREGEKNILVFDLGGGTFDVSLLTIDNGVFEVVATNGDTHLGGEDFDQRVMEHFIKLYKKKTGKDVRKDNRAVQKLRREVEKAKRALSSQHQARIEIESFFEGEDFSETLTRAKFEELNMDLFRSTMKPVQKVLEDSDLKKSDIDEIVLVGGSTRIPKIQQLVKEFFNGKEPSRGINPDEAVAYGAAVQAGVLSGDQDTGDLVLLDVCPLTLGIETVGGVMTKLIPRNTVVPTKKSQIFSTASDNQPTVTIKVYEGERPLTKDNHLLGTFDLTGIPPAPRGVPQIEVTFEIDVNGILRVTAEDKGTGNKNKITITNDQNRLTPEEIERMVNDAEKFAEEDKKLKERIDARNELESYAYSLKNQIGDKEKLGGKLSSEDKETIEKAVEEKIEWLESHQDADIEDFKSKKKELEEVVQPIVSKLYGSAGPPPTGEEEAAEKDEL
UniProt P60878: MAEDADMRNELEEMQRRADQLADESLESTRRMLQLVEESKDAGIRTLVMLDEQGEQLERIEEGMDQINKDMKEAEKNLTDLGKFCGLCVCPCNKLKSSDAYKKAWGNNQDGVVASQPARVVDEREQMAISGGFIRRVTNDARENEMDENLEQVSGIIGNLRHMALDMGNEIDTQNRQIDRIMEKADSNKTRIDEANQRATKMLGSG
UniProt P80566: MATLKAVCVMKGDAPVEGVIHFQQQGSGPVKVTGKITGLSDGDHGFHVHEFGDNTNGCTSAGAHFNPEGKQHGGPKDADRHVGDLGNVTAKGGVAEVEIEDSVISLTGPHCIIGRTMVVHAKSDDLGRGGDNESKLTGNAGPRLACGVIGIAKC
UniProt O57391: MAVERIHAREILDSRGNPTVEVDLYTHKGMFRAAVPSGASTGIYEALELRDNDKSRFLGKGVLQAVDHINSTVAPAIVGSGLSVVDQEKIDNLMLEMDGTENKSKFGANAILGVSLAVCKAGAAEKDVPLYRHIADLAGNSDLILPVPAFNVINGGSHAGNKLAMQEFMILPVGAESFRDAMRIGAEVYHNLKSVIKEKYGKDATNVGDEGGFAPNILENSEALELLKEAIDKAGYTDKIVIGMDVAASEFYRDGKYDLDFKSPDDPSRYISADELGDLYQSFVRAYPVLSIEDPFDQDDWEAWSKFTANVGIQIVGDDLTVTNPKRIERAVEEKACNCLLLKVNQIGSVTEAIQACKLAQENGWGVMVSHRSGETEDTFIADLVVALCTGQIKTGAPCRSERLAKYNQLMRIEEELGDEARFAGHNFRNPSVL
UniProt P13648: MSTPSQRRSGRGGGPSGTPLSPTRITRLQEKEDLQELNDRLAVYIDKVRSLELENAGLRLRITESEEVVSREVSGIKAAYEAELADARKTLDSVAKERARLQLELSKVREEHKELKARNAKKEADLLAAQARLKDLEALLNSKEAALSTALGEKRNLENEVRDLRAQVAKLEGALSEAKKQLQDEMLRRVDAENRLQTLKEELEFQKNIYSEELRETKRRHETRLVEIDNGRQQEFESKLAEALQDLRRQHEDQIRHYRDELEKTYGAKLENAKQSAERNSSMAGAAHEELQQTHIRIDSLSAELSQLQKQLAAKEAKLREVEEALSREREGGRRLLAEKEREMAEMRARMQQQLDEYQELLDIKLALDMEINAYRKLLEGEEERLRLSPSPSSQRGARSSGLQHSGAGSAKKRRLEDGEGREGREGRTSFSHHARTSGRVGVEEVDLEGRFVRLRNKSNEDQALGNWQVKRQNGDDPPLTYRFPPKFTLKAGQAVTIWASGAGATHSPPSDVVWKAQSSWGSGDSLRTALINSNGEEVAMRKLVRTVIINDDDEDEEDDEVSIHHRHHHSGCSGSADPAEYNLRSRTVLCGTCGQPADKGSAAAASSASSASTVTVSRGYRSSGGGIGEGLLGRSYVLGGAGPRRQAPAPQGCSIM
UniProt Q01406: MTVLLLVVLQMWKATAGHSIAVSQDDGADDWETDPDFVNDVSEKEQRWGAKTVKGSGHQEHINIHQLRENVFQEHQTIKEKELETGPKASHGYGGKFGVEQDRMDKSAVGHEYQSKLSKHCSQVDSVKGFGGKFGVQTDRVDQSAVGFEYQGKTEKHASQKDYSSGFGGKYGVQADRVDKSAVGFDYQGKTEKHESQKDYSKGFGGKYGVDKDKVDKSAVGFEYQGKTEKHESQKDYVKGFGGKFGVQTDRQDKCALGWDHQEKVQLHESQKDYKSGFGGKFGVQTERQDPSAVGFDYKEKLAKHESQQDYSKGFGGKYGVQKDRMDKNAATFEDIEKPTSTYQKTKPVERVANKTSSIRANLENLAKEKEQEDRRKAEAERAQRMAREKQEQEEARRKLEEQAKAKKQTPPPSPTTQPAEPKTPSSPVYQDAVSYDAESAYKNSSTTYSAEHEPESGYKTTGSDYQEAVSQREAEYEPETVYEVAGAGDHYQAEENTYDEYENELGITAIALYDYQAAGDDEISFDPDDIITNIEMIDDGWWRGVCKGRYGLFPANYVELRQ

Target: large-conductance Ca2+-activated K+ (BK) channel α-subunit (chicken (endogenous in chick cochlea)) (UniProt Q8AYS8)
Experiment: affinity purification with mass spectrometry; polyclonal anti-BKα (Chemicon) immunocomplex capture on protein G beads from membrane/cytoskeletal (1% ASB-14) and cytoplasmic fractions of chick cochlea; 2-D gel, LC-MS/MS; controls: irrelevant antibody, unbound beads

Substance	binding
glucose-related protein 78 (from UniProt Q90593 17-652)	binds
synaptosomal-associated protein 25 (from UniProt P60878 1-206)	binds
superoxide dismutase 1 (from UniProt P80566 1-154)	binds
γ-enolase (from UniProt O57391 1-434)	binds
lamin A (from UniProt P13648 1-657)	binds
cortactin (from UniProt Q01406 1-563)	binds
